# Results published in the supplement of paper PMC8728848.
# The list shows a part of the results.
# B1: PX9916F-bfa-443-24-443 (Bacteroides fragilis) (protein)
# chain: DIRPVGSVIPQTAEEYRALLARAYLNVPNDRGLACLRSDEMLVNDNEYDRNSYGDIERWNDVSPFPGTSQFTWSNFYNVLFIANQVIESQKEITEGTPEVVNQLVGEAHLLRAYLHFVLVNLHGQPYTKSGALNSKSIPLKLDTDLEKTLGRNTVEEVYTSILSDIEHARELINKEKWETVFSYRFNVLSVDALQSRVSLYMGAWPKCLESAEAVLAKKSVLVDMNETPLALPNHFESVESITALEQVMGSSVNNAVWVPATFLALYQEGDKRLAAYFAAPDENGNRKSSKGGKREFSCTFRVGELYLNAAEAAANMDKLPHARMRLLELMRKRYTPEAYDKKENAVNVMDKNALISEILNERARELAFEGHRWFDLRRTTRPRMVKVLQGKTYILEQDDPRYTIPIPRDAIAANPGLAN
# How the values were obtained:
# Assay in all cases: glycan array binding signal (z-score within array); higher = stronger binding
# Settings in all cases: glycan notation: IUPAC condensed, linker removed
# [1] = molecular target: Man(a1-3)[Man(a1-6)]Man(a1-6)[Man(a1-3)]Man
# Outline: (§1)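 The Consortium for Functional Glycomics database supplied 3228 glycan arrays, of which those lacking an available protein sequence were dropped. The binding signal, a within-array Z-score, was averaged across arrays of the same protein sequence and across linkers. Negative scores can be read as non-binding.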
# [2] = molecular target: Man(a1-3)[Man(a1-6)]Man(a1-6)[Man(a1-3)]Man(b1-4)GlcNAc(b1-4)GlcNAc
# Outline: as §1
# [3] = molecular target: Man(a1-3)[Man(a1-6)]Man(b1-4)GlcNAc(b1-4)GlcNAc
# Outline: as §1
# [4] = molecular target: Man(a1-3)[Man(a1-6)]Man(b1-4)GlcNAc(b1-4)[Fuc(a1-6)]GlcNAc
# Outline: as §1
# Man(a1-6)Man = molecular target: Man(a1-6)Man
# Outline: as §1
# Man(b1-4)GlcNAc = molecular target: Man(b1-4)GlcNAc
# Outline: as §1
# MurNAc(b1-4)GlcNAc = molecular target: MurNAc(b1-4)GlcNAc
# Outline: as §1
# Neu5Ac(a2-3)Gal = molecular target: Neu5Ac(a2-3)Gal
# Outline: as §1
# [5] = molecular target: Neu5Ac(a2-3)Gal(b1-3)GalNAc
# Outline: as §1
# [6] = molecular target: Neu5Ac(a2-3)Gal(b1-3)GalNAc(b1-3)Gal(a1-4)Gal(b1-4)Glc
# Outline: as §1
# [7] = molecular target: Neu5Ac(a2-3)Gal(b1-3)GalNAc(b1-4)[Neu5Ac(a2-3)]Gal(b1-4)Glc
# Outline: as §1
# [8] = molecular target: Neu5Ac(a2-3)Gal(b1-3)GalNAc(b1-4)[Neu5Ac(a2-8)Neu5Ac(a2-3)]Gal(b1-4)Glc
# Outline: as §1
# [9] = molecular target: Neu5Ac(a2-3)Gal(b1-3)GalNAc6S
# Outline: as §1
# [10] = molecular target: Neu5Ac(a2-3)Gal(b1-3)GlcNAc
# Outline: as §1
# [11] = molecular target: Neu5Ac(a2-3)Gal(b1-3)GlcNAc(b1-2)Man
# Outline: as §1
# [12] = molecular target: Neu5Ac(a2-3)Gal(b1-3)GlcNAc(b1-2)Man(a1-3)[GlcNAc(b1-4)][Neu5Ac(a2-3)Gal(b1-3)GlcNAc(b1-2)Man(a1-6)]Man(b1-4)GlcNAc(b1-4)GlcNAc
# Outline: as §1
# [13] = molecular target: Neu5Ac(a2-3)Gal(b1-3)GlcNAc(b1-2)Man(a1-3)[Neu5Ac(a2-3)Gal(b1-3)GlcNAc(b1-2)Man(a1-6)]Man(b1-4)GlcNAc(b1-4)GlcNAc
# Outline: as §1
# [14] = molecular target: Neu5Ac(a2-3)Gal(b1-3)GlcNAc(b1-3)Gal(b1-3)GlcNAc
# Outline: as §1
# [15] = molecular target: Neu5Ac(a2-3)Gal(b1-3)GlcNAc(b1-3)Gal(b1-4)GlcNAc
# Outline: as §1
# [16] = molecular target: Neu5Ac(a2-3)Gal(b1-3)GlcNAc(b1-3)GalNAc
# Outline: as §1
# [17] = molecular target: Neu5Ac(a2-3)Gal(b1-3)GlcNAc(b1-4)Gal(b1-4)Glc
# Outline: as §1
# [18] = molecular target: Neu5Ac(a2-3)Gal(b1-3)GlcNAc(b1-6)GalNAc
# Outline: as §1
# [19] = molecular target: Neu5Ac(a2-3)Gal(b1-3)GlcNAc6S
# Outline: as §1
# [20] = molecular target: Neu5Ac(a2-3)Gal(b1-3)[Fuc(a1-4)]GlcNAc
# Outline: as §1
# [21] = molecular target: Neu5Ac(a2-3)Gal(b1-3)[Fuc(a1-4)]GlcNAc(b1-3)Gal(b1-3)[Fuc(a1-4)]GlcNAc
# Outline: as §1
# [22] = molecular target: Neu5Ac(a2-3)Gal(b1-3)[Fuc(a1-4)]GlcNAc(b1-3)Gal(b1-4)[Fuc(a1-3)]GlcNAc
# Outline: as §1
# [23] = molecular target: Neu5Ac(a2-3)Gal(b1-3)[GlcNAc(b1-6)]GalNAc
# Outline: as §1
# [24] = molecular target: Neu5Ac(a2-3)Gal(b1-3)[Neu5Ac(a2-6)]GalNAc
# Outline: as §1
# [25] = molecular target: Neu5Ac(a2-3)Gal(b1-3)[Neu5Ac(a2-6)]GlcNAc(b1-3)[Fuc(a1-3)[Gal(b1-4)]GlcNAc(b1-6)]Gal(b1-4)Glc
# Outline: as §1
# [26] = molecular target: Neu5Ac(a2-3)Gal(b1-3)]Neu5Ac(a2-3)Gal(b1-4)]GlcNAc
# Outline: as §1
# Neu5Ac(a2-3)Gal(b1-4)Glc = molecular target: Neu5Ac(a2-3)Gal(b1-4)Glc
# Outline: as §1
# [27] = molecular target: Neu5Ac(a2-3)Gal(b1-4)GlcNAc
# Outline: as §1
# [28] = molecular target: Neu5Ac(a2-3)Gal(b1-4)GlcNAc(b1-2)Man
# Outline: as §1
# [29] = molecular target: Neu5Ac(a2-3)Gal(b1-4)GlcNAc(b1-2)Man(a1-3)[GlcNAc(b1-4)][Neu5Ac(a2-3)Gal(b1-4)GlcNAc(b1-2)Man(a1-6)]Man(b1-4)GlcNAc(b1-4)GlcNAc
# Outline: as §1
# [30] = molecular target: Neu5Ac(a2-3)Gal(b1-4)GlcNAc(b1-2)Man(a1-3)[Neu5Ac(a2-3)Gal(b1-4)GlcNAc(b1-2)Man(a1-6)]Man(b1-4)GlcNAc(b1-4)GlcNAc
# Outline: as §1
# [31] = molecular target: Neu5Ac(a2-3)Gal(b1-4)GlcNAc(b1-2)Man(a1-3)[Neu5Ac(a2-3)Gal(b1-4)GlcNAc(b1-2)Man(a1-6)]Man(b1-4)GlcNAc(b1-4)[Fuc(a1-6)]GlcNAc
# Outline: as §1
# [32] = molecular target: Neu5Ac(a2-3)Gal(b1-4)GlcNAc(b1-2)Man(a1-3)[Neu5Ac(a2-6)Gal(b1-4)GlcNAc(b1-2)Man(a1-6)]Man(b1-4)GlcNAc(b1-4)GlcNAc
# Outline: as §1
# [33] = molecular target: Neu5Ac(a2-3)Gal(b1-4)GlcNAc(b1-2)[Neu5Ac(a2-3)Gal(b1-4)GlcNAc(b1-4)]Man(a1-3)[GlcNAc(b1-4)][Neu5Ac(a2-3)Gal(b1-4)GlcNAc(b1-2)[Neu5Ac(a2-3)Gal(b1-4)GlcNAc(b1-6)]Man(a1-6)]Man(b1-4)GlcNAc(b1-4)GlcNAc
# Outline: as §1
binder,measurement,setting,value
B1,glycan array binding signal (z-score),[1],0.08
same,glycan array binding signal (z-score),[2],0.117
same,glycan array binding signal (z-score),[3],-0.811
same,glycan array binding signal (z-score),[4],-1.15
same,glycan array binding signal (z-score),Man(a1-6)Man,0.387
same,glycan array binding signal (z-score),Man(b1-4)GlcNAc,0.728
same,glycan array binding signal (z-score),MurNAc(b1-4)GlcNAc,-1.51
same,glycan array binding signal (z-score),Neu5Ac(a2-3)Gal,-1.07
same,glycan array binding signal (z-score),[5],-0.724
same,glycan array binding signal (z-score),[6],0.297
same,glycan array binding signal (z-score),[7],-0.484
same,glycan array binding signal (z-score),[8],0.575
same,glycan array binding signal (z-score),[9],-0.423
same,glycan array binding signal (z-score),[10],-0.376
same,glycan array binding signal (z-score),[11],4.28
same,glycan array binding signal (z-score),[12],-0.895
same,glycan array binding signal (z-score),[13],0.484
same,glycan array binding signal (z-score),[14],0.577
same,glycan array binding signal (z-score),[15],0
same,glycan array binding signal (z-score),[16],-0.413
same,glycan array binding signal (z-score),[17],-0.057
same,glycan array binding signal (z-score),[18],0.365
same,glycan array binding signal (z-score),[19],-0.62
same,glycan array binding signal (z-score),[20],-0.955
same,glycan array binding signal (z-score),[21],-0.537
same,glycan array binding signal (z-score),[22],-0.202
same,glycan array binding signal (z-score),[23],1.17
same,glycan array binding signal (z-score),[24],-0.491
same,glycan array binding signal (z-score),[25],-0.503
same,glycan array binding signal (z-score),[26],0.006
same,glycan array binding signal (z-score),Neu5Ac(a2-3)Gal(b1-4)Glc,0.058
same,glycan array binding signal (z-score),[27],-0.536
same,glycan array binding signal (z-score),[28],0.699
same,glycan array binding signal (z-score),[29],-1.31
same,glycan array binding signal (z-score),[30],0.157
same,glycan array binding signal (z-score),[31],-0.107
same,glycan array binding signal (z-score),[32],-1.29
same,glycan array binding signal (z-score),[33],-1.07

# Already shown: an excerpt of the list.
binder,measurement,setting,value
B1,glycan array binding signal (z-score),[29],-1.31
same,glycan array binding signal (z-score),[30],0.157
